According to the supplement of paper PMC12823440, “Inhibitors supercharge kinase turnover through native proteolytic circuits” (Nature, 2025):
The list shows a part of the results. Hit calls seldom repeat between salt and free forms of one compound.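 In K562 cells expressing nanoluciferase-fused kinases, luminescence was recorded at 4 h intervals between 2 and 18 h, normalized as percent of control with DMSO at 100% and a positive control at 0%. A significant (2 sigma) signal drop marks a time point as decreased. The authors' rule for a hit is not shown and takes in more than the number of time points.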

By UniProt entry, the sequences of proteins in these tests, tags left out. Where a name states a change or a piece, a line headed by the entry shows the natural chain unless it says otherwise.
UniProt P23458: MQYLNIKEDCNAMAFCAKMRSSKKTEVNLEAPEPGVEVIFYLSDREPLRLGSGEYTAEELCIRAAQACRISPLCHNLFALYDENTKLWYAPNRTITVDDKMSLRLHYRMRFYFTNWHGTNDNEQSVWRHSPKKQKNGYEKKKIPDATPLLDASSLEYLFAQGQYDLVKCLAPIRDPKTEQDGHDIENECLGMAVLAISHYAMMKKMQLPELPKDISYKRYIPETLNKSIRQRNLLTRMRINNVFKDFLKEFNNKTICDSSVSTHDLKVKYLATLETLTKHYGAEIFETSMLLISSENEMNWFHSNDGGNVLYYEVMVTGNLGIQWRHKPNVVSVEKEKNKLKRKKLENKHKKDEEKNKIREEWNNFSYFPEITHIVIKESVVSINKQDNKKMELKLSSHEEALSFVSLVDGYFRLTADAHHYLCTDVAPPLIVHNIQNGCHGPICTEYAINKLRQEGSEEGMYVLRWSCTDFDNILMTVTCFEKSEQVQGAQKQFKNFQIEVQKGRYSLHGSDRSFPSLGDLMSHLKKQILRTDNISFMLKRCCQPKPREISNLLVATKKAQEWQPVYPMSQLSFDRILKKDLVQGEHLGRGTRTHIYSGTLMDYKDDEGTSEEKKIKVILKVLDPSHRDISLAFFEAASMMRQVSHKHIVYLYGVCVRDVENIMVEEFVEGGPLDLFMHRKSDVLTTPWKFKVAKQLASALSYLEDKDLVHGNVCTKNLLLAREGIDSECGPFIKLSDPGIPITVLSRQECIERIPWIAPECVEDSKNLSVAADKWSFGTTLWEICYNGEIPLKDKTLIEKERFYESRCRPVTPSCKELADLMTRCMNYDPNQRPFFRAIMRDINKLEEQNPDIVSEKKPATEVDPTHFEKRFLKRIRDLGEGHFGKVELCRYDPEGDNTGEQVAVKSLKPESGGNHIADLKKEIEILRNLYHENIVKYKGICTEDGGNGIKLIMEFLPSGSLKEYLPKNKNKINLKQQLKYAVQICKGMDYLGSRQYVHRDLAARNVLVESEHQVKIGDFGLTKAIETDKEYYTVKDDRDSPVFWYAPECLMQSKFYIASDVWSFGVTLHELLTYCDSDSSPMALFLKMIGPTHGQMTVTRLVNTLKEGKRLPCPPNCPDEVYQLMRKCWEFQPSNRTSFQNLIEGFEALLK
UniProt P06239: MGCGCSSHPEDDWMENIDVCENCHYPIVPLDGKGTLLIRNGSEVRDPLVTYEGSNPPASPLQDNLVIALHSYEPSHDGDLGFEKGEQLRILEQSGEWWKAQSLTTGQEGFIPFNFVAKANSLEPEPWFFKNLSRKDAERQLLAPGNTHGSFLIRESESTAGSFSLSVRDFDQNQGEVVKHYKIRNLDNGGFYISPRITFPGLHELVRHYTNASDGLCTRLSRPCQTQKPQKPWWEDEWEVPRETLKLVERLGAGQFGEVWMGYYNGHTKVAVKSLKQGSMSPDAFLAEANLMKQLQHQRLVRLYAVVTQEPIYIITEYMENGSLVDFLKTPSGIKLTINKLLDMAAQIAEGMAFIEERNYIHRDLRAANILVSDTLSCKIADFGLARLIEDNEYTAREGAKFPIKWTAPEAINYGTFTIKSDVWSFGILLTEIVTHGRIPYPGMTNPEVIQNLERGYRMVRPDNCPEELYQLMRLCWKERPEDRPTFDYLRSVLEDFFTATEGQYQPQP
UniProt P53667: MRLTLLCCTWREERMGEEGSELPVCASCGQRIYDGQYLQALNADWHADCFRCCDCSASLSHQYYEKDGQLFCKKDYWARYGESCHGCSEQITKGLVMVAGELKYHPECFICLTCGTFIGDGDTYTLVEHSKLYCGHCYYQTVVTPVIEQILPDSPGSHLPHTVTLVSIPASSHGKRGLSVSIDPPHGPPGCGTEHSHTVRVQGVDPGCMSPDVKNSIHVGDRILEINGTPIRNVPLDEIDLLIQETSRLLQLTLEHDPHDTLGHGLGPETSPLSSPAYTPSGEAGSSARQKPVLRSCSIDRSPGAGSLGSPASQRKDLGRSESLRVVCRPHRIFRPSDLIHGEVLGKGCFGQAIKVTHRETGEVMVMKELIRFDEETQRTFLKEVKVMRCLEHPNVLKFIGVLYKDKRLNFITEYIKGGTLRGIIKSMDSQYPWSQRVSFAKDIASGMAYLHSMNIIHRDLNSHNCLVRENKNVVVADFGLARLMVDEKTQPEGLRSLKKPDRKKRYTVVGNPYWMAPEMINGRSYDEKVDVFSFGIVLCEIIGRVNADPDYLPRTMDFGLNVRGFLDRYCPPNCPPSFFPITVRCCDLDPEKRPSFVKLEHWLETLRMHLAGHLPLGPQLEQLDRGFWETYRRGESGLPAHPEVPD
UniProt P53671: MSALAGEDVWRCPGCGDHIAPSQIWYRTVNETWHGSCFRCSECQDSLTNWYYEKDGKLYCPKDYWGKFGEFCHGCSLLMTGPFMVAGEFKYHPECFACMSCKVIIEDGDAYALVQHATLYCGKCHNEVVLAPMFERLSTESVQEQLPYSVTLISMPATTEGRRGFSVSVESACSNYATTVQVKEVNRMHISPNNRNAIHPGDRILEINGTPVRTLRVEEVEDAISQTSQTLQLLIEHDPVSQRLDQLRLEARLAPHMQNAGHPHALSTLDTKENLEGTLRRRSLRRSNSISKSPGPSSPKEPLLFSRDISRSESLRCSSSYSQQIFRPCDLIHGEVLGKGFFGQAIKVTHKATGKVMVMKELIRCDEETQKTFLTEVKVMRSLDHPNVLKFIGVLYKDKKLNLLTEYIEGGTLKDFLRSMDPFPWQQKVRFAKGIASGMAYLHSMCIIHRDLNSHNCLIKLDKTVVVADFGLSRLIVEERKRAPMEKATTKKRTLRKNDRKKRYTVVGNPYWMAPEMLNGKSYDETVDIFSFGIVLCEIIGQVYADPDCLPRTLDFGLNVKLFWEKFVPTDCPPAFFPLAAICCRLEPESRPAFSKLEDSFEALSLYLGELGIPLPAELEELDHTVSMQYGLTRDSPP
UniProt Q12851: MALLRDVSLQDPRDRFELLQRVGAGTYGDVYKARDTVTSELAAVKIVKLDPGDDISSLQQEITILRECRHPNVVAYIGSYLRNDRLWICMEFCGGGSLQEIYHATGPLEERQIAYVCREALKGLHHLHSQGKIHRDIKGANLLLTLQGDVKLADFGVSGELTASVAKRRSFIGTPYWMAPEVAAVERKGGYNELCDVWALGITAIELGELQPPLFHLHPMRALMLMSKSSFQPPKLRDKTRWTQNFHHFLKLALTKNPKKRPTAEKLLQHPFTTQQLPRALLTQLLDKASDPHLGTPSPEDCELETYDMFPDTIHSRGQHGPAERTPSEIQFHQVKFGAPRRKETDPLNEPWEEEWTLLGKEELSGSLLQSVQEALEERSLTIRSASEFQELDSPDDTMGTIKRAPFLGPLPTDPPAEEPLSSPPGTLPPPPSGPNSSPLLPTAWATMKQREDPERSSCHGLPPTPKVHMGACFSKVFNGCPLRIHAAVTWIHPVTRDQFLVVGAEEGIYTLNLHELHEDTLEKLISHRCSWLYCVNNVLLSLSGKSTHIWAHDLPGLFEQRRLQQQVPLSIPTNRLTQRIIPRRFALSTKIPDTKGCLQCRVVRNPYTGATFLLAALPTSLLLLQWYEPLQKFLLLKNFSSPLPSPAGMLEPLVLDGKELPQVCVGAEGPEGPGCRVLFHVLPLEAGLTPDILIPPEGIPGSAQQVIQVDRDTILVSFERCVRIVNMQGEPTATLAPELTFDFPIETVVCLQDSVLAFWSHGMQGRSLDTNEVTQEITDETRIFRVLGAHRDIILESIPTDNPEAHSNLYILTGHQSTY
UniProt P49137, whole entry, looked up: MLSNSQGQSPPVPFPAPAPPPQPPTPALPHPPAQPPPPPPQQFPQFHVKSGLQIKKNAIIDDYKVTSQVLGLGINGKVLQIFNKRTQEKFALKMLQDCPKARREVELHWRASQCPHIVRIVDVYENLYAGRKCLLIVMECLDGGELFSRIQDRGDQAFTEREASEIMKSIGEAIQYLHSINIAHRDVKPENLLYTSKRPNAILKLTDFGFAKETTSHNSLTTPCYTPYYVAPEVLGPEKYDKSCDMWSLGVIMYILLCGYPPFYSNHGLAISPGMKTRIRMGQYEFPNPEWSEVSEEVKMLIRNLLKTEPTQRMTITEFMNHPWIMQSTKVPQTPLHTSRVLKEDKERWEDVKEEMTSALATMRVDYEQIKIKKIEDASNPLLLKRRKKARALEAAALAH
UniProt Q9BUB5: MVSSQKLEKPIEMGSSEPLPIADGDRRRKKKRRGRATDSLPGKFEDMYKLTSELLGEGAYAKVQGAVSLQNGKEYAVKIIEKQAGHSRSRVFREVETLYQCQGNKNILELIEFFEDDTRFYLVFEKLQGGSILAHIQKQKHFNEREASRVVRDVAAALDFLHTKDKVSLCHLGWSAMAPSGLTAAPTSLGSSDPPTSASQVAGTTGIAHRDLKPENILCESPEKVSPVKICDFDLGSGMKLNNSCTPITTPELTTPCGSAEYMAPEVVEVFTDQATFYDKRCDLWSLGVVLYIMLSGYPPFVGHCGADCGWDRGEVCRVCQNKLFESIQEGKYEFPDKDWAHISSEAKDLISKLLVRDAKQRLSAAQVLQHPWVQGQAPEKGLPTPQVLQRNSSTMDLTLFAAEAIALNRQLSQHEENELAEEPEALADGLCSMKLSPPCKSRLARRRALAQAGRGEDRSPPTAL
UniProt Q16620, whole entry, looked up: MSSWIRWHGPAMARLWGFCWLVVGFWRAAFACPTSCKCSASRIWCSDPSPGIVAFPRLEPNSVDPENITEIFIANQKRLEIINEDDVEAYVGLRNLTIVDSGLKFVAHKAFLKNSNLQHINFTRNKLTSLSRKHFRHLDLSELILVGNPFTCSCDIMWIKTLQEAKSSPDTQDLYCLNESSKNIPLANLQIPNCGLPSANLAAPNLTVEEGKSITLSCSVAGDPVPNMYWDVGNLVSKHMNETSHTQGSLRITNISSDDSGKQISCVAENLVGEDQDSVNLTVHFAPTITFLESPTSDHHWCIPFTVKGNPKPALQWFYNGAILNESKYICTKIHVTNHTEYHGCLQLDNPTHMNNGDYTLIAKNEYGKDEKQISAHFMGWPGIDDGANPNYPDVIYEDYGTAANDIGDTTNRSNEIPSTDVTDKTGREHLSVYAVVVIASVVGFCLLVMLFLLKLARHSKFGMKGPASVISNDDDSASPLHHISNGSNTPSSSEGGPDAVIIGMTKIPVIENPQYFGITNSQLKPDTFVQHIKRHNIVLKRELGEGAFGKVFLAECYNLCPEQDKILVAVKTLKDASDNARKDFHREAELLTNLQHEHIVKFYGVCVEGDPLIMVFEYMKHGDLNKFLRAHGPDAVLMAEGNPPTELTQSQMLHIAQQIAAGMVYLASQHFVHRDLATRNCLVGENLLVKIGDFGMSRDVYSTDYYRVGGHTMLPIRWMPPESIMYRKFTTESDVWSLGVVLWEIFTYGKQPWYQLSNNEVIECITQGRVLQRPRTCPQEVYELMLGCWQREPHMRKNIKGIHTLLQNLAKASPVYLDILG
UniProt Q16288, whole entry, looked up: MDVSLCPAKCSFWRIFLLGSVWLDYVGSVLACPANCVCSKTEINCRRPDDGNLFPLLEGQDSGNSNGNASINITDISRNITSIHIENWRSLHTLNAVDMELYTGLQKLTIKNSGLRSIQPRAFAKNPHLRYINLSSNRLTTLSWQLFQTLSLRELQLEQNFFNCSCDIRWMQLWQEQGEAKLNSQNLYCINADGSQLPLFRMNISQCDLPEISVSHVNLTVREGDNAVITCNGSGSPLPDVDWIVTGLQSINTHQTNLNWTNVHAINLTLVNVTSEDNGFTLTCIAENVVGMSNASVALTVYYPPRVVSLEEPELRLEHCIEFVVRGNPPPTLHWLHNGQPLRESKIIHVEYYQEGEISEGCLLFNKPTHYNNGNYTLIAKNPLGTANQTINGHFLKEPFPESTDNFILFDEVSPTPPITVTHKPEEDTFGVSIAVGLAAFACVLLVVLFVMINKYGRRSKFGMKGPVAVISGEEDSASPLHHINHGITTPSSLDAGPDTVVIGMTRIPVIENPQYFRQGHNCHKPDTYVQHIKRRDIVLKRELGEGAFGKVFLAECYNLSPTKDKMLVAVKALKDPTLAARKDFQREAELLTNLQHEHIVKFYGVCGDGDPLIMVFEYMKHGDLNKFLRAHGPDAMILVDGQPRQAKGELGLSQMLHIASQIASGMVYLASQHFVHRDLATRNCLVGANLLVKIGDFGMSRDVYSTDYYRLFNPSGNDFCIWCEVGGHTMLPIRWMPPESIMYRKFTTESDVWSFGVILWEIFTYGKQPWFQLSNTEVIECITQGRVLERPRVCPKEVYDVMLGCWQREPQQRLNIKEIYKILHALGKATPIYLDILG

Columns and labels:
Assay in all cases: kinase-Nluc reporter destabilization hit call (1 = scored as downregulated) (binary); higher = compound decreases kinase abundance
Settings in all cases: K562; 2-18 h
IRAK3 = IRAK3 (UniProt Q9Y616)
JAK1 = JAK1 (UniProt P23458)
LCK = LCK (UniProt P06239)
LIMK1 = LIMK1 (UniProt P53667)
LIMK2 = LIMK2 (UniProt P53671)
LMTK2 = LMTK2 (UniProt Q8IWU2)
LYN = LYN (UniProt P07948)
MAP2K1 = MAP2K1 (UniProt Q02750)
MAP2K2 = MAP2K2 (UniProt P36507)
MAP4K2 = MAP4K2 (UniProt Q12851)
MAPK1 = MAPK1 (UniProt P28482)
MAPK4 = MAPK4 (UniProt P31152)
MAPKAPK2 = MAPKAPK2 (UniProt P49137)
MKNK1 = MKNK1 (UniProt Q9BUB5)
NTRK2 = NTRK2 (UniProt Q16620)
NTRK3 = NTRK3 (UniProt Q16288)
PAK4 = PAK4 (UniProt O96013)
PBK = PBK (UniProt Q96KB5)
PDGFRB = PDGFRB (UniProt P09619)
PDK1 = PDK1 (UniProt Q15118)

Measured: kinase-Nluc reporter destabilization hit call

Cn1cc(-c2cc3c(N4CCN(c5ncc([C@@](C)(N)c6ccc(F)cc6)cn5)CC4)ncnn3c2)cn1 [Avapritinib] (2.5 µM)
active: LIMK1 = 1
inactive: IRAK3 = 0 | JAK1 = 0 | LCK 0 | LIMK2 = 0 | LMTK2 = 0 | LYN 0 | MAP2K1 = 0 | MAP2K2 = 0 | MAP4K2 = 0 | MAPK1 = 0 | MAPK4 = 0 | MAPKAPK2 = 0 | MKNK1 = 0 | NTRK2 = 0 | NTRK3 = 0 | PAK4 = 0 | PBK 0 | PDGFRB 0 | PDK1 = 0

Cc1cc(Nc2nc(N[C@@H](C)c3ncc(F)cn3)ncc2Cl)[nH]n1 (10 µM)
inactive: IRAK3 = 0 | JAK1 = 0 | LCK 0 | LIMK1 = 0 | LIMK2 = 0 | LMTK2 = 0 | LYN 0 | MAP2K1 = 0 | MAP2K2 = 0 | MAP4K2 = 0 | MAPK1 = 0 | MAPK4 = 0 | MAPKAPK2 = 0 | MKNK1 = 0 | NTRK2 = 0 | NTRK3 = 0 | PAK4 = 0 | PBK 0 | PDGFRB 0 | PDK1 = 0

CCCCCCCC/C=C\CCCCCCCC(=O)NCC(=O)O [N-Oleoyl glycine] (10 µM)
inactive: IRAK3 = 0 | JAK1 = 0 | LCK 0 | LIMK1 = 0 | LIMK2 = 0 | LMTK2 = 0 | LYN 0 | MAP2K1 = 0 | MAP2K2 = 0 | MAP4K2 = 0 | MAPK1 = 0 | MAPK4 = 0 | MAPKAPK2 = 0 | MKNK1 = 0 | NTRK2 = 0 | NTRK3 = 0 | PAK4 = 0 | PBK 0 | PDGFRB 0 | PDK1 = 0

O=c1cc(-c2ccc(O)c(O)c2O)oc2ccccc12 (10 µM)
inactive: IRAK3 = 0 | JAK1 = 0 | LCK 0 | LIMK1 = 0 | LIMK2 = 0 | LMTK2 = 0 | LYN 0 | MAP2K1 = 0 | MAP2K2 = 0 | MAP4K2 = 0 | MAPK1 = 0 | MAPK4 = 0 | MAPKAPK2 = 0 | MKNK1 = 0 | NTRK2 = 0 | NTRK3 = 0 | PAK4 = 0 | PBK 0 | PDGFRB 0 | PDK1 = 0

COc1ccc2c(c1OC)OC1c3ccc(O)cc3OCC21 (stereo not given) [Methylnissolin] (10 µM)
inactive: IRAK3 = 0 | JAK1 = 0 | LCK 0 | LIMK1 = 0 | LIMK2 = 0 | LMTK2 = 0 | LYN 0 | MAP2K1 = 0 | MAP2K2 = 0 | MAP4K2 = 0 | MAPK1 = 0 | MAPK4 = 0 | MAPKAPK2 = 0 | MKNK1 = 0 | NTRK2 = 0 | NTRK3 = 0 | PAK4 = 0 | PBK 0 | PDGFRB 0 | PDK1 = 0

CC[C@@H]1[C@H](F)C(=O)N[C@@H]1COc1nccc2cc(C(N)=O)c(OC)cc12 (10 µM)
inactive: IRAK3 = 0 | JAK1 = 0 | LCK 0 | LIMK1 = 0 | LIMK2 = 0 | LMTK2 = 0 | LYN 0 | MAP2K1 = 0 | MAP2K2 = 0 | MAP4K2 = 0 | MAPK1 = 0 | MAPK4 = 0 | MAPKAPK2 = 0 | MKNK1 = 0 | NTRK2 = 0 | NTRK3 = 0 | PAK4 = 0 | PBK 0 | PDGFRB 0 | PDK1 = 0

CC1=C(C(=O)Nc2ccc3[nH]ncc3c2)C(c2ccc(F)cc2)NC(=O)N1 (stereo not given) (10 µM)
inactive: IRAK3 = 0 | JAK1 = 0 | LCK 0 | LIMK1 = 0 | LIMK2 = 0 | LMTK2 = 0 | LYN 0 | MAP2K1 = 0 | MAP2K2 = 0 | MAP4K2 = 0 | MAPK1 = 0 | MAPK4 = 0 | MAPKAPK2 = 0 | MKNK1 = 0 | NTRK2 = 0 | NTRK3 = 0 | PAK4 = 0 | PBK 0 | PDGFRB 0 | PDK1 = 0

O=C1NC(=O)C(c2cn(-c3ccccc3)nc2-c2ccc(F)cc2)N1 (stereo not given) (10 µM)
inactive: IRAK3 = 0 | JAK1 = 0 | LCK 0 | LIMK1 = 0 | LIMK2 = 0 | LMTK2 = 0 | LYN 0 | MAP2K1 = 0 | MAP2K2 = 0 | MAP4K2 = 0 | MAPK1 = 0 | MAPK4 = 0 | MAPKAPK2 = 0 | MKNK1 = 0 | NTRK2 = 0 | NTRK3 = 0 | PAK4 = 0 | PBK 0 | PDGFRB 0 | PDK1 = 0

O=c1[nH]ccc2cc(OC3CCNCC3)ccc12 (10 µM)
inactive: IRAK3 = 0 | JAK1 = 0 | LCK 0 | LIMK1 = 0 | LIMK2 = 0 | LMTK2 = 0 | LYN 0 | MAP2K1 = 0 | MAP2K2 = 0 | MAP4K2 = 0 | MAPK1 = 0 | MAPK4 = 0 | MAPKAPK2 = 0 | MKNK1 = 0 | NTRK2 = 0 | NTRK3 = 0 | PAK4 = 0 | PBK 0 | PDGFRB 0 | PDK1 = 0

CC1(N)CCN(c2cnc3c(-c4cccc(Cl)c4Cl)[nH]nc3n2)CC1 (2.5 µM)
inactive: IRAK3 = 0 | JAK1 = 0 | LCK 0 | LIMK1 = 0 | LIMK2 = 0 | LMTK2 = 0 | LYN 0 | MAP2K1 = 0 | MAP2K2 = 0 | MAP4K2 = 0 | MAPK1 = 0 | MAPK4 = 0 | MAPKAPK2 = 0 | MKNK1 = 0 | NTRK2 = 0 | NTRK3 = 0 | PAK4 = 0 | PBK 0 | PDGFRB 0 | PDK1 = 0

O=C(O)c1ccccc1Nc1cccc(C(F)(F)F)c1 [Flufenamic acid] (10 µM)
inactive: IRAK3 = 0 | JAK1 = 0 | LCK 0 | LIMK1 = 0 | LIMK2 = 0 | LMTK2 = 0 | LYN 0 | MAP2K1 = 0 | MAP2K2 = 0 | MAP4K2 = 0 | MAPK1 = 0 | MAPK4 = 0 | MAPKAPK2 = 0 | MKNK1 = 0 | NTRK2 = 0 | NTRK3 = 0 | PAK4 = 0 | PBK 0 | PDGFRB 0 | PDK1 = 0

CC[C@H](Nc1ncnc2[nH]cnc12)c1oc2ccccc2c(=O)c1-c1cccc(F)c1 [Tenalisib] (10 µM)
inactive: IRAK3 = 0 | JAK1 = 0 | LCK 0 | LIMK1 = 0 | LIMK2 = 0 | LMTK2 = 0 | LYN 0 | MAP2K1 = 0 | MAP2K2 = 0 | MAP4K2 = 0 | MAPK1 = 0 | MAPK4 = 0 | MAPKAPK2 = 0 | MKNK1 = 0 | NTRK2 = 0 | NTRK3 = 0 | PAK4 = 0 | PBK 0 | PDGFRB 0 | PDK1 = 0

For convenience, 2 of the compounds above.
CC1(N)CCN(c2cnc3c(-c4cccc(Cl)c4Cl)[nH]nc3n2)CC1 (2.5 µM)
inactive: IRAK3 = 0 | JAK1 = 0 | LCK 0 | LIMK1 = 0 | LIMK2 = 0 | LMTK2 = 0 | LYN 0 | MAP2K1 = 0 | MAP2K2 = 0 | MAP4K2 = 0 | MAPK1 = 0 | MAPK4 = 0 | MAPKAPK2 = 0 | MKNK1 = 0 | NTRK2 = 0 | NTRK3 = 0 | PAK4 = 0 | PBK 0 | PDGFRB 0 | PDK1 = 0

O=C(O)c1ccccc1Nc1cccc(C(F)(F)F)c1 [Flufenamic acid] (10 µM)
inactive: IRAK3 = 0 | JAK1 = 0 | LCK 0 | LIMK1 = 0 | LIMK2 = 0 | LMTK2 = 0 | LYN 0 | MAP2K1 = 0 | MAP2K2 = 0 | MAP4K2 = 0 | MAPK1 = 0 | MAPK4 = 0 | MAPKAPK2 = 0 | MKNK1 = 0 | NTRK2 = 0 | NTRK3 = 0 | PAK4 = 0 | PBK 0 | PDGFRB 0 | PDK1 = 0

Later entries.

C[C@@H]1COCCN1c1cc(=O)n2c(n1)N(Cc1cncc(Cl)c1)[C@H](C(F)(F)F)CC2 (10 µM)
inactive: IRAK3 = 0 | JAK1 = 0 | LCK 0 | LIMK1 = 0 | LIMK2 = 0 | LMTK2 = 0 | LYN 0 | MAP2K1 = 0 | MAP2K2 = 0 | MAP4K2 = 0 | MAPK1 = 0 | MAPK4 = 0 | MAPKAPK2 = 0 | MKNK1 = 0 | NTRK2 = 0 | NTRK3 = 0 | PAK4 = 0 | PBK 0 | PDGFRB 0 | PDK1 = 0

COc1cc(C(C)=O)cc(OC)c1O [Acetosyringone] (10 µM)
inactive: IRAK3 = 0 | JAK1 = 0 | LCK 0 | LIMK1 = 0 | LIMK2 = 0 | LMTK2 = 0 | LYN 0 | MAP2K1 = 0 | MAP2K2 = 0 | MAP4K2 = 0 | MAPK1 = 0 | MAPK4 = 0 | MAPKAPK2 = 0 | MKNK1 = 0 | NTRK2 = 0 | NTRK3 = 0 | PAK4 = 0 | PBK 0 | PDGFRB 0 | PDK1 = 0

O=c1nc(N2CCOCC2)oc2c(-c3cccc4c3sc3ccccc34)cccc12 (10 µM)
inactive: IRAK3 = 0 | JAK1 = 0 | LCK 0 | LIMK1 = 0 | LIMK2 = 0 | LMTK2 = 0 | LYN 0 | MAP2K1 = 0 | MAP2K2 = 0 | MAP4K2 = 0 | MAPK1 = 0 | MAPK4 = 0 | MAPKAPK2 = 0 | MKNK1 = 0 | NTRK2 = 0 | NTRK3 = 0 | PAK4 = 0 | PBK 0 | PDGFRB 0 | PDK1 = 0

O=C(c1ccc(Nc2nccc(-c3cc4ccccc4s3)n2)cc1)N1CCC(N2CCCC2)CC1 (2.5 µM)
inactive: IRAK3 = 0 | JAK1 = 0 | LCK 0 | LIMK1 = 0 | LIMK2 = 0 | LMTK2 = 0 | LYN 0 | MAP2K1 = 0 | MAP2K2 = 0 | MAP4K2 = 0 | MAPK1 = 0 | MAPK4 = 0 | MAPKAPK2 = 0 | MKNK1 = 0 | NTRK2 = 0 | NTRK3 = 0 | PAK4 = 0 | PBK 0 | PDGFRB 0 | PDK1 = 0

CN(C)C(=O)c1ccc(S(=O)(=O)c2ccc(NC(=O)[C@@](C)(O)C(F)(F)F)c(Cl)c2)cc1 (10 µM)
inactive: IRAK3 = 0 | JAK1 = 0 | LCK 0 | LIMK1 = 0 | LIMK2 = 0 | LMTK2 = 0 | LYN 0 | MAP2K1 = 0 | MAP2K2 = 0 | MAP4K2 = 0 | MAPK1 = 0 | MAPK4 = 0 | MAPKAPK2 = 0 | MKNK1 = 0 | NTRK2 = 0 | NTRK3 = 0 | PAK4 = 0 | PBK 0 | PDGFRB 0 | PDK1 = 0
